Counter-ions that a name gives are not always drawn. ± gives the standard deviation of the averaged measurements. Some of the results follow. Many values rest on one well or one pass, so single values are uncertain.
Test system: RAW 264.7
Assay: cell viability (MTT) relative to vehicle control; higher = more viable cells
Conditions: stimulus: HMGB1 5 ug/ml, 18 h
[1] = compound concentration: 1 ug/ml

Structure (SMILES) | cell viability (compound concentration: 3 uM) [%] | cell viability [1] [%]
CO[C@H]1C[C@@H]2CC[C@@H](C)[C@@](O)(O2)C(=O)C(=O)N2CCCC[C@H]2C(=O)O[C@H]([C@H](C)C[C@@H]2CC[C@@H](O)[C@H](OC)C2)CC(=O)[C@H](C)/C=C(\C)[C@@H](O)[C@@H](OC)C(=O)[C@H](C)C[C@H](C)/C=C/C=C/C=C/1C | 112 ± 11 | 
CO[C@H]1C[C@@H]2CC[C@@H](C)[C@@](O)(O2)C(=O)C(=O)N2CCCC[C@H]2C(=O)O[C@H]([C@H](C)C[C@@H]2CC[C@@H](O)[C@H](OC)C2)CC(=O)[C@H](C)/C=C(\C)[C@@H](O)[C@@H](OC)C(=O)[C@H](C)C[C@H](C)/C=C/C=C/C=C/1C [Rapamycin] | 99.9 | 
Cc1cccc(CCN2CCC(C(=O)c3ccc(NS(C)(=O)=O)cc3)CC2)n1 | 100 | 
CCN(CC)CCn1c(=O)c(Cc2ccc(OC)cc2)nc2ccccc21 [Caroverine hydrochloride] | 106 | 
CNc1cc(NS(=O)(=O)c2ccc(N)cc2)nc(NC)n1 [Ro 04-6790 dihydrochloride] | 120 | 
NS(=O)(=O)c1ccc(C(=O)O)cc1 | 110 | 
O=C(O)P(=O)(O)O | 103 | 
Nc1ncnc2c1ncn2[C@@H]1O[C@H](CO)[C@@H](OP(=O)(O)O)[C@H]1O [3'-Adenylic acid] |  | 99.8
CCCCCCCCCCCCCCCC[N+](C)(C)CCN(Cc1ccc(OC)cc1)c1ncccn1 [Thonzonium bromide] | 86 | 
Cc1nc(C)c(Cl)c(O)c1Cl | 108 | 
Cc1nc(C)c(Cl)c(O)c1Cl [Clopidol] | 96 | 
CCN(CC)CCCC(C)Nc1c2ccc(Cl)cc2nc2ccc(OC)cc12 (centres undefined) | 86.3 ± 14 | 
CCN(CC)CCCC(C)Nc1c2ccc(Cl)cc2nc2ccc(OC)cc12 (centres undefined) [Quinacrine] | 103 | 
CCN(CC)CCCC(C)Nc1c2ccc(Cl)cc2nc2ccc(OC)cc12 (centres undefined) [Quinacrine dihydrochloride dihydrate] | 102 | 
CCN(CC)CCCC(C)Nc1c2ccc(Cl)cc2nc2ccc(OC)cc12 (centres undefined) [Quinacrine dihydrochloride] | 107 | 
CC(=O)N1CCN(c2ccc(OCC3COC(Cn4ccnc4)(c4ccc(Cl)cc4Cl)O3)cc2)CC1 (centres undefined) | 105 ± 11 | 
CC(=O)N1CCN(c2ccc(OCC3COC(Cn4ccnc4)(c4ccc(Cl)cc4Cl)O3)cc2)CC1 (centres undefined) [Ketoconazole] | 103 ± 3.1 | 
CN(CCOc1ccc(NS(C)(=O)=O)cc1)CCc1ccc(NS(C)(=O)=O)cc1 | 96.2 | 
CN(CCOc1ccc(NS(C)(=O)=O)cc1)CCc1ccc(NS(C)(=O)=O)cc1 [Dofetilide] | 90.1 | 
COc1cc(C=O)ccc1O [Vanillin] |  | 96.4
CC1=C(C)C(=O)C(CCCCC#CCCCC#CCO)=C(C)C1=O [Docebenone] | 107 | 

Structure (SMILES) | cell viability (compound concentration: 3 uM) [%] | cell viability [1] [%]
CC1=C(C)C(=O)C(CCCCC#CCCCC#CCO)=C(C)C1=O | 101 | 
CC(C)NCC(O)c1ccc(NS(C)(=O)=O)cc1 (centres undefined) [Sotalol] | 102 | 
CC(C)NCC(O)c1ccc(NS(C)(=O)=O)cc1 (centres undefined) [Sotalol hydrochloride] | 105 | 
C#C[C@]1(O)CC[C@H]2[C@@H]3CCc4cc(OC)ccc4[C@H]3CC[C@@]21C [Ethynylestradiol 3-methyl ether] | 90.3 | 
C#C[C@]1(O)CC[C@H]2[C@@H]3CCc4cc(OC)ccc4[C@H]3CC[C@@]21C | 108 ± 11 | 
CCCc1nc(C)c2c(O)nc(-c3cc(S(=O)(=O)N4CCN(CC)CC4)ccc3OCC)nn12 | 108 | 
COc1cc(OC)c(C(=O)/C=C/c2ccc(OC)c(OC)c2)c(OC)c1 [3,4,2',4',6'-Pentamethoxychalcone] |  | 95
Nc1c2c(nc3c1CCC3)CCCC2 | 95.7 | 
N[C@H](Cc1ccccc1)C(=O)O | 106 | 
O=c1cc(-c2cccc(O)c2O)oc2ccccc12 |  | 87.8
O=c1c(-c2ccc(O)cc2)coc2cc(O)cc(O)c12 [Genistein] | 103 | 
CCOC(=O)Nc1ccc2c(c1)N(C(=O)CCN1CCOCC1)c1ccccc1S2 [Moricizine hydrochloride] | 88.5 | 
O=C(O)CN(CCOCCOCCN(CC(=O)O)CC(=O)O)CC(=O)O | 106 | 
CNC(=C[N+](=O)[O-])NCCSCc1ccc(CN(C)C)o1 | 106 | 
CNC(=C[N+](=O)[O-])NCCSCc1ccc(CN(C)C)o1 [Ranitidine hydrochloride] | 112 ± 11 | 
CNC(=C[N+](=O)[O-])NCCSCc1ccc(CN(C)C)o1 [Ranitidine] | 118 | 
C=CCc1ccc(O)c(-c2ccc(O)c(CC=C)c2)c1 | 97.3 | 
CC(C)C[C@H](NC(=O)[C@@H](O)[C@H](N)Cc1ccccc1)C(=O)O [Bestatin hydrochloride] | 94.5 | 
CC(C)C[C@H](NC(=O)[C@@H](O)[C@H](N)Cc1ccccc1)C(=O)O | 98.2 | 
COC(=O)[C@H]1[C@H]2C[C@@H]3c4[nH]c5cc(OC)ccc5c4CCN3C[C@H]2C[C@@H](OC(=O)c2cc(OC)c(OC)c(OC)c2)[C@@H]1OC [Reserpine] | 105 ± 2.7 | 108
COC(=O)[C@H]1[C@H]2C[C@@H]3c4[nH]c5cc(OC)ccc5c4CCN3C[C@H]2C[C@@H](OC(=O)c2cc(OC)c(OC)c(OC)c2)[C@@H]1OC | 107 | 

Structure (SMILES) | cell viability (compound concentration: 3 uM) [%] | cell viability [1] [%]
CN(C)CCCSc1ccccc1NC(=O)/C=C/c1ccccc1 [Cinanserin] | 100.35 ± 0.028 | 
CCOC(=O)[C@H](CCc1ccccc1)N[C@@H](C)C(=O)N1[C@H](C(=O)O)C[C@H]2CCCC[C@@H]21 [Trandolapril] | 106 | 
O=C(O[C@@H]1Cc2c(O)cc(O)cc2O[C@@H]1c1cc(O)c(O)c(O)c1)c1cc(O)c(O)c(O)c1 [Epigallocatechin gallate] | 100 | 
CC(C)(CO)[C@@H](O)C(=O)NCCCO (racemic) [D-Panthenol; dl-form as vitamin] |  | 98.8
CC(C)(CO)[C@@H](O)C(=O)NCCCO | 116 | 
CNC[C@H](O)c1cccc(O)c1 | 107 | 
CNC[C@H](O)c1cccc(O)c1 [Phenylephrine hydrochloride] | 98.2 | 
CC(=O)NNC(=O)N1Cc2ccccc2Oc2ccc(Cl)cc21 | 119 | 
CCN(CC)CCNC(=O)c1ccc(NC(C)=O)cc1 [N-Acetylprocainamide hydrochloride] | 105 | 
CCN(CC)CCNC(=O)c1ccc(NC(C)=O)cc1 | 102 | 
CCCCCCN(CCCCCC)C(=O)Cc1c(-c2ccc(F)cc2)[nH]c2ccccc12 [N,N-Dihexyl-2-(4-fluorophenyl)indole-3-acetamide] | 98.8 | 
CCC(=O)NS(=O)(=O)c1ccc(-c2c(-c3ccccc3)noc2C)cc1 | 93 | 
[Cl-].[Li+] [Lithium Chloride] | 104 | 
NC(Cc1c[nH]c2cc(F)ccc12)C(=O)O (racemic) [6-Fluoro-DL-tryptophan] |  | 113
CCN(CC)CCCC(C)Nc1ccnc2cc(Cl)ccc12 (centres undefined) | 105 ± 7.9 | 
CCN(CC)CCCC(C)Nc1ccnc2cc(Cl)ccc12 (centres undefined) [Chloroquine diphosphate] | 96.6 ± 4.7 | 
CCN(CC)CCCC(C)Nc1ccnc2cc(Cl)ccc12 (centres undefined) [Chloroquine] | 101 | 
CS(=O)(=O)c1ccc([C@@H](O)[C@@H](CF)NC(=O)C(Cl)Cl)cc1 | 96.7 | 
CS(=O)(=O)c1ccc([C@@H](O)[C@@H](CF)NC(=O)C(Cl)Cl)cc1 [Florfenicol] | 112 ± 7.1 | 
CC(C)NCC(O)COc1cccc2ccccc12 (racemic) | 107 | 
CC(C)NCC(O)COc1cccc2ccccc12 (racemic) [(±)-Propranolol hydrochloride] | 103 | 

Some of the entries above, set out differently.

| Structure (SMILES) | cell viability (compound concentration: 3 uM) [%] | cell viability [1] [%] |
| --- | --- | --- |
| CCOC(=O)[C@H](CCc1ccccc1)N[C@@H](C)C(=O)N1[C@H](C(=O)O)C[C@H]2CCCC[C@@H]21 [Trandolapril] | 106 |  |
| O=C(O[C@@H]1Cc2c(O)cc(O)cc2O[C@@H]1c1cc(O)c(O)c(O)c1)c1cc(O)c(O)c(O)c1 [Epigallocatechin gallate] | 100 |  |
| CC(C)(CO)[C@@H](O)C(=O)NCCCO (racemic) [D-Panthenol; dl-form as vitamin] |  | 98.8 |
| CC(C)(CO)[C@@H](O)C(=O)NCCCO | 116 |  |
| CNC[C@H](O)c1cccc(O)c1 | 107 |  |

Further results follow.

Structure (SMILES) | cell viability (compound concentration: 3 uM) [%] | cell viability [1] [%]
C[C@](N)(Cc1ccc(O)cc1)C(=O)O [L-alpha-Methyl-p-tyrosine] | 117 | 
CNCCNS(=O)(=O)c1cccc2cnccc12 [H-8 dihydrochloride] | 117 | 
CCNC(=O)[C@H]1O[C@@H](n2cnc3c(N)nc(NCCc4ccc(CCC(=O)O)cc4)nc32)[C@H](O)[C@@H]1O | 113 | 
Cc1cccc(C)c1NC(=O)c1ccccc1C(=O)O | 112 | 
C=C(CC)C(=O)c1ccc(OCC(=O)O)c(Cl)c1Cl | 96.2 | 
C=C(CC)C(=O)c1ccc(OCC(=O)O)c(Cl)c1Cl [Ethacrynic acid] | 97.7 | 
C=C(CC)C(=O)c1ccc(OCC(=O)O)c(Cl)c1Cl [Ethacrynic Acid] | 107 | 
CC(C)c1nc(N(C)S(C)(=O)=O)nc(-c2ccc(F)cc2)c1/C=C/[C@@H](O)C[C@@H](O)CC(=O)O | 110 | 
C[N+](C)(C)CCOP(=O)(O)OP(=O)([O-])OC[C@H]1O[C@@H](n2ccc(N)nc2=O)[C@H](O)[C@@H]1O | 105 | 
C[N+](C)(C)CCOP(=O)(O)OP(=O)([O-])OC[C@H]1O[C@@H](n2ccc(N)nc2=O)[C@H](O)[C@@H]1O [Cytidine 5'-diphosphocholine sodium salt hydrate] | 94.5 | 
Nc1ccc(S(=O)(=O)NC(=O)c2ccccc2)cc1 | 101 | 
Nc1ccc(S(=O)(=O)NC(=O)c2ccccc2)cc1 [Sulfabenzamide] | 105 | 
CCCCCN(C)CCC(O)(P(=O)(O)O)P(=O)(O)O [Ibandronate sodium] | 129 | 
CCCCCN(C)CCC(O)(P(=O)(O)O)P(=O)(O)O [Ibandronate] | 106 ± 8.2 | 
O=C(O)C1=C[C@@H](O)[C@@H](O)[C@H](O)C1 [Shikimic acid] |  | 103
C1N2CN3CN1CN(C2)C3 | 97.3 | 
C1N2CN3CN1CN(C2)C3 [Methenamine] | 99.2 | 
O=C1NCCN1c1ncc([N+](=O)[O-])s1 [Niridazole] | 117 | 
Nc1ncnc2c1ncn2[C@@H]1O[C@H](CO)C[C@@H]1O [3'-deoxydenosine] | 96 | 
CN=c1nc(-c2ccccc2)n(-c2ccccc2)s1 | 116 | 
